# In the supplement of paper PMC4604168 (melanoma cell lines):
# This is one part of the list. Single values are uncertain, as repeats are few or missing.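 The apoptosis fraction was the count of cleaved-PARP antibody-stained nuclei relative to all DNA-stained nuclei, imaged in 1,536-well plates. Screening doses were set so most cells survived, and baseline and induced cleaved-PARP levels vary greatly across cell lines.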
# System: MZ2-MEL
# Experiment: cleaved PARP positive nuclei fraction relative to DMSO control; melanoma cells; higher = more apoptosis
# Details: library dose: low library concentration; 72 h
row,SMILES,cleaved PARP positive nuclei fraction
1,"C=C(c1ccc(C(=O)O)cc1)c1cc2c(cc1C)C(C)(C)CCC2(C)C [Bexarotene] + O=C(Oc1ccc([N+](=O)[O-])cc1)N1CCC(C(O)(c2ccc3c(c2)OCO3)c2ccc3c(c2)OCO3)CC1 [JZL184] (first compound 2 µM, partner dose 1 µM)",129%
2,"Cn1sc(=O)n(Cc2ccccc2)c1=O + O=C(Oc1ccc([N+](=O)[O-])cc1)N1CCC(C(O)(c2ccc3c(c2)OCO3)c2ccc3c(c2)OCO3)CC1 [JZL184] (first compound 0.4 µM, partner dose 1 µM)",73.4%
3,"C[As](C)SC[C@H](NC(=O)CC[C@H](N)C(=O)O)C(=O)NCC(=O)O [Darinaparsin] + COc1cc(Nc2ncc(F)c(Nc3ccc4c(n3)NC(=O)C(C)(C)O4)n2)cc(OC)c1OC [Tamatinib] (first compound 0.4 µM, partner dose 0.4 µM)",85.8%
4,"CNC(=O)c1cc(Oc2ccc(NC(=O)Nc3ccc(Cl)c(C(F)(F)F)c3)cc2)ccn1 [sorafenib] + Cc1cc(SCc2sc(-c3ccc(C(F)(F)F)c(F)c3)nc2C)ccc1OCC(=O)O [GW0742] (first compound 0.4 µM, partner dose 2 µM)",103%
5,"Cn1cc(C2=C(c3cn(C4CCN(Cc5ccccn5)CC4)c4ccccc34)C(=O)NC2=O)c2ccccc21 [Enzastaurin] + COC(=O)c1sccc1S(=O)(=O)Nc1ccc(Nc2ccccc2)cc1OC [GSK0660] (first compound 0.8 µM, partner dose 1 µM)",104%
6,"COc1cc([C@@H]2c3cc4c(cc3[C@@H](O[C@@H]3O[C@@H]5CO[C@@H](C)O[C@H]5[C@H](O)[C@H]3O)[C@H]3COC(=O)[C@H]23)OCO4)cc(OC)c1O [etoposide] + C/C(O)=C(\C#N)C(=O)Nc1cc(Br)ccc1Br [LFM-A13] (first compound 0.02 µM, partner dose 2 µM)",97.5%
7,"Cn1cnc2c(F)c(Nc3ccc(Br)cc3Cl)c(C(=O)NOCCO)cc21 [selumetinib] + O=C(Oc1ccc([N+](=O)[O-])cc1)N1CCC(C(O)(c2ccc3c(c2)OCO3)c2ccc3c(c2)OCO3)CC1 [JZL184] (first compound 0.015 µM, partner dose 1 µM)",247%
8,"Nc1ncn([C@H]2C[C@H](O)[C@@H](CO)O2)c(=O)n1 [decitabine] + O=C(Oc1ccc([N+](=O)[O-])cc1)N1CCC(C(O)(c2ccc3c(c2)OCO3)c2ccc3c(c2)OCO3)CC1 [JZL184] (first compound 0.1 µM, partner dose 1 µM)",87.3%
9,"C[As](C)SC[C@H](NC(=O)CC[C@H](N)C(=O)O)C(=O)NCC(=O)O [Darinaparsin] + O=C(O)c1ccc(-c2c[nH]c3ncc(-c4ccccc4)cc23)cc1C1CCCC1 [GSK650394] (first compound 0.4 µM, partner dose 0.16 µM)",115%
10,"O=C(Nc1cc(C(F)(F)F)cc(C(F)(F)F)c1)c1cc(Cl)ccc1O + O=C(Oc1ccc([N+](=O)[O-])cc1)N1CCC(C(O)(c2ccc3c(c2)OCO3)c2ccc3c(c2)OCO3)CC1 [JZL184] (first compound 0.016 µM, partner dose 1 µM)",153%
11,"Cn1cc(C2=C(c3cn(C4CCN(Cc5ccccn5)CC4)c4ccccc34)C(=O)NC2=O)c2ccccc21 [Enzastaurin] + O=C(Oc1ccc([N+](=O)[O-])cc1)N1CCC(C(O)(c2ccc3c(c2)OCO3)c2ccc3c(c2)OCO3)CC1 [JZL184] (first compound 0.8 µM, partner dose 1 µM)",106%
12,"N.N.[Cl][Pt][Cl] [cisplatin] + CO[C@@H]1[C@H](N(C)C(=O)c2ccccc2)C[C@H]2O[C@]1(C)n1c3ccccc3c3c4c(c5c6ccccc6n2c5c31)C(=O)NC4 [Midostaurin] (first compound 1.6 µM, partner dose 0.08 µM)",83.5%
13,"CCN(CC)CCNC(=O)c1c(C)[nH]c(/C=C2\C(=O)Nc3ccc(F)cc32)c1C [sunitinib] + O=C(Oc1ccc([N+](=O)[O-])cc1)N1CCC(C(O)(c2ccc3c(c2)OCO3)c2ccc3c(c2)OCO3)CC1 [JZL184] (first compound 0.4 µM, partner dose 1 µM)",142%
14,"N.N.[Cl][Pt][Cl] [cisplatin] + Oc1cc(-c2nc(-c3ccccc3)[nH]c2-c2ccncc2)ccc1Cl [L779450] (first compound 1.6 µM, partner dose 0.2 µM)",110%
15,"Clc1ccc(Nc2nnc(Cc3ccncc3)c3ccccc23)cc1 [vatalanib] + O=C(Oc1ccc([N+](=O)[O-])cc1)N1CCC(C(O)(c2ccc3c(c2)OCO3)c2ccc3c(c2)OCO3)CC1 [JZL184] (first compound 2 µM, partner dose 1 µM)",50.2%
16,"C[As](C)SC[C@H](NC(=O)CC[C@H](N)C(=O)O)C(=O)NCC(=O)O [Darinaparsin] + OCCn1cc(-c2cnc3nnn(Cc4ccc5ncccc5c4)c3n2)cn1 [PF04217903] (first compound 0.4 µM, partner dose 1 µM)",131%
17,"C[C@@H](N)c1ccc(C(=O)Nc2ccnc3[nH]ccc23)cc1 + Cc1cc(SCc2sc(-c3ccc(C(F)(F)F)c(F)c3)nc2C)ccc1OCC(=O)O [GW0742] (first compound 0.4 µM, partner dose 2 µM)",558%
18,"N.N.[Cl][Pt][Cl] [cisplatin] + Cn1cncc1[C@@](N)(c1ccc(Cl)cc1)c1ccc2c(c1)c(-c1cccc(Cl)c1)cc(=O)n2C [tipifarnib] (first compound 1.6 µM, partner dose 0.01 µM)",87.7%

# An excerpt of these results, bar-delimited.
row | SMILES | cleaved PARP positive nuclei fraction
4 | CNC(=O)c1cc(Oc2ccc(NC(=O)Nc3ccc(Cl)c(C(F)(F)F)c3)cc2)ccn1 [sorafenib] + Cc1cc(SCc2sc(-c3ccc(C(F)(F)F)c(F)c3)nc2C)ccc1OCC(=O)O [GW0742] (first compound 0.4 µM, partner dose 2 µM) | 103%
5 | Cn1cc(C2=C(c3cn(C4CCN(Cc5ccccn5)CC4)c4ccccc34)C(=O)NC2=O)c2ccccc21 [Enzastaurin] + COC(=O)c1sccc1S(=O)(=O)Nc1ccc(Nc2ccccc2)cc1OC [GSK0660] (first compound 0.8 µM, partner dose 1 µM) | 104%
